# Data taken from the supplement of paper PMC9135407.
# Values joined by “and” are separate entries in the source; they are usually repeats but may differ in a detail not shown here. Equal entries are not always repeated. Structures can show the parent of a compound that is named as a salt. ± gives the standard deviation of the averaged measurements. This is one part of the list. Baselines shift from plate to plate; read single values as rough.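 Assay uses culture-activated primary human stellate myofibroblasts; lipid droplet recovery indicates inactivation. Measured: proportion of Hoechst-counted cells over a plate-specific Bodipy cutoff, duplicate wells, DMSO and nortriptyline as per-plate negative and positive controls. A hit scores, control-normalized, above the plate's top-tenth-percentile nortriptyline wells or ranks among its three best wells. Final well concentrations not reported.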
# System: primary human hepatic stellate cells (donor 1)
# Test: percent Bodipy-positive cells; higher = more lipid droplet accumulation
# Details: 48 h
# [1] = library stock concentration: 3.33 mM
# [2] = library stock concentration: 10 mM
# [3] = library stock concentration: 1 mM
# [4] = library stock concentration: 5.4 mM
structure (smiles),measurement,setting,value
c1cncc(CN2CCC(n3ncc4c(N5CCOCC5)nc(-c5ccc6[nH]ccc6c5)nc43)CC2)c1,percent Bodipy-positive cells,[1],95.8 ± 1.6%
same,percent Bodipy-positive cells,[2],99.215 ± 0.022%
CC#CCOC(=O)C1=CCCN(C)C1 [Arecaidine but-2-ynyl ester tosylate],percent Bodipy-positive cells,[2],7.81 ± 1.1%
CC(C)C[C@@H]1NC(=O)[C@H](CCCN)NC(=O)[C@H](C(C)C)NC(=O)[C@H](Cc2ccc(O)cc2)N[C@@H](CCC(=O)O)C(=O)N[C@@H](CC(N)=O)C(=O)[C@@H](Cc2ccccc2)NC(=O)[C@H](Cc2ccccc2)NC(=O)[C@@H]2CCCN2C(=O)[C@@H](Cc2ccccc2)NC1=O [Tyrothricin],percent Bodipy-positive cells,library stock concentration: 1.6 mM,39.7 ± 17%
same,percent Bodipy-positive cells,[2],20.9 ± 4.8%
CCN=C1N[C@@H]2[C@@H](O)[C@H](O)[C@@H](CO)O[C@@H]2S1 [Thiamet G],percent Bodipy-positive cells,[1],16.4 ± 1.4%
same,percent Bodipy-positive cells,[2],30.2 ± 8.6%
Nc1ccc2cc3ccc(N)cc3nc2c1,percent Bodipy-positive cells,[2],0.392 ± 0.55%
CC1(C)O[C@@H]2C[C@H]3[C@@H]4CCC5=CC(=O)C=C[C@]5(C)[C@@]4(F)[C@@H](O)C[C@]3(C)[C@]2(C(=O)CO)O1 [Triamcinolone Acetonide],percent Bodipy-positive cells,[1],17.8 ± 17%
same,percent Bodipy-positive cells,[2],10.6 ± 3.4%
CC1(C)O[C@@H]2C[C@H]3[C@@H]4CCC5=CC(=O)C=C[C@]5(C)[C@@]4(F)[C@@H](O)C[C@]3(C)[C@]2(C(=O)CO)O1,percent Bodipy-positive cells,[2],21 ± 9.1%
CC1(C)O[C@@H]2C[C@H]3[C@@H]4CCC5=CC(=O)C=C[C@]5(C)[C@@]4(F)[C@@H](O)C[C@]3(C)[C@]2(C(=O)CO)O1 [Triamcinolone acetonide],percent Bodipy-positive cells,[2],17.6 ± 4%
NC1=NCCN1CC(=O)O [Cyclocreatine],percent Bodipy-positive cells,[2],25.1 ± 3.4%
CC(C)(C)C(=O)Nc1ccccc1 [N-Pivaloylaniline],percent Bodipy-positive cells,[3],24.8 ± 10%
N=C(N)SCCc1c[nH]cn1 [Imetit dihydrobromide],percent Bodipy-positive cells,[2],30.6% and 8.42%
CCCCC[C@H](O)/C=C/[C@H]1[C@H](O)CC(=O)[C@@H]1C/C=C\CCCC(=O)OC [Prostaglandin E2 methyl ester],percent Bodipy-positive cells,[3],17 ± 3.3%
Cc1cnc(NC(=O)C2=C(O)c3ccccc3S(=O)(=O)N2C)s1 [Meloxicam sodium],percent Bodipy-positive cells,[4],59.5 ± 10%
same,percent Bodipy-positive cells,[2],34.1 ± 1.2%
Cc1cnc(NC(=O)C2=C(O)c3ccccc3S(=O)(=O)N2C)s1 [Meloxicam],percent Bodipy-positive cells,,27.6 ± 3.6%
same,percent Bodipy-positive cells,[1],6.7 ± 1.6%
same,percent Bodipy-positive cells,library stock concentration: 5.7 mM,7.5 ± 3.7%
same,percent Bodipy-positive cells,[2],15.3% and 28.7% and 31.8%
CC(C)NCC(O)COc1ccc(CC(N)=O)cc1 (racemic) [(RS)-Atenolol],percent Bodipy-positive cells,[2],4.54 ± 1%
O=C(O)CCCc1ccccc1,percent Bodipy-positive cells,[2],23.8 ± 1.2%
O=C(O)CCCc1ccccc1 [Sodium phenylbutyrate],percent Bodipy-positive cells,library stock concentration: 10.7 mM,5.33 ± 0.38%
O=C(O)CCCc1ccccc1 [sodium 4-Phenylbutyrate],percent Bodipy-positive cells,[2],5.85 ± 1.9%
O=C(O)CCCc1ccccc1 [Sodium Phenylbutyrate],percent Bodipy-positive cells,[1],11.8 ± 3.3%
same,percent Bodipy-positive cells,[2],23.1 ± 6.9%
CC(C)Oc1ccc(C(=O)N[C@H](CNC(=O)CN(C)C)Cc2ccc(-c3cn4cccc([C@H](C)O)c4n3)cc2)cc1Cl,percent Bodipy-positive cells,[1],67.58 ± 0.47%
COC(=O)Nc1nc2cc(C(=O)c3cccs3)ccc2[nH]1 [Nocodazole],percent Bodipy-positive cells,,84 ± 2.6%
CCCCCC(O)C=CC1C(O)CC(O)C1CC=CCCCC(=O)OC (stereo not drawn) [Prostaglandin F2.alpha. methyl ester],percent Bodipy-positive cells,[3],12.4 ± 5%
O=C(O)COC(=O)Cc1ccccc1Nc1c(Cl)cccc1Cl [Aceclofenac],percent Bodipy-positive cells,,28.5 ± 1.8%
OC1(c2ccc(Cl)c(C(F)(F)F)c2)CCN(CCCC(c2ccc(F)cc2)c2ccc(F)cc2)CC1,percent Bodipy-positive cells,[2],93.4 ± 1.1%
OC1(c2ccc(Cl)c(C(F)(F)F)c2)CCN(CCCC(c2ccc(F)cc2)c2ccc(F)cc2)CC1 [Penfluridol],percent Bodipy-positive cells,[1],93.4 ± 4.7%
same,percent Bodipy-positive cells,[2],97.08 ± 0.84%
C[C@@H]1C[C@H]2[C@@H]3CCC4=CC(=O)C=C[C@]4(C)[C@@]3(F)[C@@H](O)C[C@]2(C)[C@@]1(O)C(=O)CO [Dexamethasone (DHAP)],percent Bodipy-positive cells,[1],4.74 ± 1.3%
same,percent Bodipy-positive cells,[2],25.1 ± 6.7%
C[C@@H]1C[C@H]2[C@@H]3CCC4=CC(=O)C=C[C@]4(C)[C@@]3(F)[C@@H](O)C[C@]2(C)[C@@]1(O)C(=O)CO [Dexamethasone],percent Bodipy-positive cells,library stock concentration: 5.1 mM,4.24% and 2.25%
same,percent Bodipy-positive cells,[2],6.23% and 6.86% and 29.9%
same,percent Bodipy-positive cells,library stock concentration: 12.7 mM,10.1 ± 3.1%
"c1ccc(CN2CCC3(CCc4ccccc43)CC2)cc1 [L-693,403 maleate]",percent Bodipy-positive cells,[2],49 ± 3.9%
COc1cc(NS(C)(=O)=O)ccc1Nc1c2ccccc2nc2ccccc12 [Amsacrine hydrochloride],percent Bodipy-positive cells,[2],100%
CCN1CCC[C@H]1CNC(=O)c1c(OC)ccc(Br)c1OC [Remoxipride Hydrochloride],percent Bodipy-positive cells,,10.5 ± 3.7%
CCN1CCC[C@H]1CNC(=O)c1c(OC)ccc(Br)c1OC [Remoxipride hydrochloride],percent Bodipy-positive cells,[2],9.54 ± 3.6%
CCN1CCC[C@H]1CNC(=O)c1c(OC)ccc(Br)c1OC [Remoxipride],percent Bodipy-positive cells,[4],11.4 ± 2.2%
FC(F)c1nc2ccccc2n1-c1nc(N2CCOCC2)nc(N2CCOCC2)n1,percent Bodipy-positive cells,library stock concentration: 80 uM,12.6 ± 2.2%
same,percent Bodipy-positive cells,library stock concentration: 400 uM,9.23 ± 7.7%
same,percent Bodipy-positive cells,library stock concentration: 2 mM,6.19 ± 2.1%
same,percent Bodipy-positive cells,[1],8.37 ± 0.85%
O=C1NC(=O)/C(=C/c2ccc(-c3ccc(F)cc3O)o2)S1,percent Bodipy-positive cells,[2],99.81 ± 0.27%
Cc1cccc(Nc2nc(-c3ccncc3)cs2)c1,percent Bodipy-positive cells,[1],71.1 ± 12%
same,percent Bodipy-positive cells,[2],99.13 ± 0.19%
CCN1CCN(c2cc3c(cc2F)c(=O)c(C(=O)O)cn3C2CC2)CC1,percent Bodipy-positive cells,[2],8.42 ± 3.7%
O=C1C2CC3CC1CC(O)(C3)C2,percent Bodipy-positive cells,[2],45.1 ± 0.6%

# In another format: results already given
structure (smiles)	measurement	setting	value
COC(=O)Nc1nc2cc(C(=O)c3cccs3)ccc2[nH]1 [Nocodazole]	percent Bodipy-positive cells		84 ± 2.6%
CCCCCC(O)C=CC1C(O)CC(O)C1CC=CCCCC(=O)OC (stereo not drawn) [Prostaglandin F2.alpha. methyl ester]	percent Bodipy-positive cells	[3]	12.4 ± 5%
